Measured values reported in patent US20090118161A1 (BAYLOR COLLEGE OF MEDICINE, published 2009).
No constants are given. Whether binding was seen depends on the method and setting. Some binding calls cover weakened binding; strength is not graded here.

By UniProt entry, the sequences of proteins in these tests, tags left out. Residues count along the entry.
UniProt P04275, residues 1238-1471: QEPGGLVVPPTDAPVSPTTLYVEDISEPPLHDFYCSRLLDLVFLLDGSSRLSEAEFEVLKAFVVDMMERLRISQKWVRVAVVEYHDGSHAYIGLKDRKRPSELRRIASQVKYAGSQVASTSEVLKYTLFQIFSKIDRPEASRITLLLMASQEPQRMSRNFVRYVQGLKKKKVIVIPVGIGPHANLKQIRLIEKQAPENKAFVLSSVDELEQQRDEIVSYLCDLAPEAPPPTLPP

Biological target: recombinant VWF-A1 domain polypeptide (amino acids Q1238-P1471) (human) (UniProt P04275)
Assay: assay not described

binding: binds
Binder: ILQRVREIRY [peptide B9 (…), derived from the A2 domain]
